{"source": "PubChem BioAssay AID504795 (Drosophila RNAi Screening Center, 2011)", "aim": "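Fly genes whose loss alters neurite growth or neural cell form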 (primary screen)", "system": "primary Drosophila neurons and glia", "reagent": "long dsRNA against Drosophila genes, 250 ng dsRNA per well", "timing": "one week", "read-out": "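Descriptive morphology terms assigned by visual inspection of live automated images of GFP-marked cells, taken one week after adding 250 ng dsRNA per well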", "note": "This is not the whole library: the list holds selected reagents. 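Every listed dsRNA shows some phenotype; how reagents were selected for listing is not stated.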 Names joined by + are all predicted targets of the reagent. No sequences are given here."}
{"Target gene": "OstDelta (Oligosaccharide transferase Delta subunit)", "PubChem SID": "SID104186772", "phenotype seen, replicate 1": "abnormal cell clusters"}
{"Target gene": "CG14417", "PubChem SID": "SID104198430", "phenotype seen, replicate 1": "abnormal cell clusters"}
{"Target gene": "dwg (deformed wings)", "PubChem SID": "SID104198558", "phenotype seen, replicate 1": "too many neurite branches"}
{"Target gene": "CG13223", "PubChem SID": "SID104186136", "phenotype seen, replicate 1": "axon bundles split apart"}
{"Target gene": "CG32820 + CG17450 + CG32819", "PubChem SID": "SID104201459", "phenotype seen, replicate 1": "axon bundles split apart"}
{"Target gene": "mRpL41 (mitochondrial ribosomal protein L41)", "PubChem SID": "SID104186049", "phenotype seen, replicate 1": "fewer cells"}
{"Target gene": "CG32453", "PubChem SID": "SID104201356", "phenotype seen, replicate 1": "too many neurite branches"}
{"Target gene": "RpL5 (Ribosomal protein L5)", "PubChem SID": "SID104183593", "phenotype seen, replicate 1": "too many neurite branches"}
{"Target gene": "Tm2 (Tropomyosin 2)", "PubChem SID": "SID104196679", "phenotype seen, replicate 1": "axon bundles split apart"}
{"Target gene": "Teh2 (tipE homolog 2)", "PubChem SID": "SID104188250", "phenotype seen, replicate 1": "too many neurite branches"}
{"Target gene": "yip2 (yippee interacting protein 2)", "PubChem SID": "SID104183432", "phenotype seen, replicate 1": "beaded; swollen axons"}
{"Target gene": "stretch (retired record)", "PubChem SID": "SID104194139", "phenotype seen, replicate 1": "sheet-like cell extensions"}
{"Target gene": "TfIIFbeta (Transcription factor TFIIFbeta)", "PubChem SID": "SID104196676", "phenotype seen, replicate 1": "abnormal cell clusters"}
{"Target gene": "TfIIFbeta (Transcription factor TFIIFbeta)", "PubChem SID": "SID104201189", "phenotype seen, replicate 1": "axon bundles split apart"}
{"Target gene": "CG8407", "PubChem SID": "SID104186959", "phenotype seen, replicate 1": "abnormal cell clusters"}
{"Target gene": "FoxK (Forkhead box K)", "PubChem SID": "SID104189651", "phenotype seen, replicate 1": "abnormal cell clusters"}
{"Target gene": "disp (dispatched)", "PubChem SID": "SID104192168", "phenotype seen, replicate 1": "too many neurite branches"}
{"Target gene": "smid (smallminded)", "PubChem SID": "SID104191190", "phenotype seen, replicate 1": "too many neurite branches"}
{"Target gene": "CG1941", "PubChem SID": "SID104186594", "phenotype seen, replicate 1": "abnormal cell clusters"}

A run of entries from the list above, for reference:
{"Target gene": "mRpL41 (mitochondrial ribosomal protein L41)", "PubChem SID": "SID104186049", "phenotype seen, replicate 1": "fewer cells"}
{"Target gene": "CG32453", "PubChem SID": "SID104201356", "phenotype seen, replicate 1": "too many neurite branches"}
{"Target gene": "RpL5 (Ribosomal protein L5)", "PubChem SID": "SID104183593", "phenotype seen, replicate 1": "too many neurite branches"}
